Data as given in PubChem BioAssay AID652243 (Drosophila RNAi Screening Center, 2013)

Test: 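Fly regulators of androgen-dependent reporter output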 (primary screen)
System: Drosophila S2R+ cells
Reagents: long dsRNA against Drosophila genes
Duration: 72 h (48 h, then 24 h hormone)
Conditions: synthetic androgen R1881 at 10 nM for 24 h
Measured: 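Per-well raw luminescence of the androgen-driven firefly reporter and of the Renilla control, two replicates each, without normalisation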
Scale: firefly reporter light: higher = more light from androgen-responsive reporter; Renilla control light: higher = more constitutive control signal (cell number, transfection)
Hit rule: 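Across duplicate plates, a knock-down whose log firefly/Renilla ratio shifted a set fold down or up from the GFP/LacZ control mean was a hit; the downward cut appears as both 1.5 and 3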
Meaning of the calls: active = hit: reporter lowered or raised; inactive = no hit
The deposit covers about 24,000 reagents; below is an unselected part of those that have a named target and a result. Over the whole deposit, 246 (1%) are marked active. 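Plates not normalised; calls are printed but the firefly/Renilla ratio behind them is not deposited; fold cut for lowering reported inconsistently.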 The raw values are shown without normalisation. No sequences are given here. Not given: the amount of reagent.

gene,DRSC id,"firefly reporter light, replicate 1","firefly reporter light, replicate 2","Renilla control light, replicate 1","Renilla control light, replicate 2",Outcome
NT5E-2 (GeneID 246458),DRSC06893,1.08e6,7.75e5,1.33e6,1.35e6,inactive
kek1 (GeneID 34688),DRSC03551,1.98e5,3.23e5,1.32e6,1.61e6,inactive
kek1 (GeneID 34688),DRSC36699,,,,,inactive
kek1 (GeneID 34688),DRSC36700,,,,,inactive
Mal-A6 (GeneID 246565),DRSC07233,3.51e5,3.54e5,2.11e6,2.11e6,inactive
Mal-A6 (GeneID 246565),DRSC27167,3.35e5,2.47e5,4.54e5,3.33e5,inactive
CG17819 (GeneID 42579),DRSC15279,2.58e5,2.55e5,2.97e6,3.67e6,inactive
CG9933 (GeneID 34700),DRSC03276,90943,1.26e5,1.13e6,1.14e6,inactive
CG9933 (GeneID 34700),DRSC29443,6.07e5,4.17e5,7.69e5,7.69e5,inactive
CG32032 (GeneID 192535),DRSC08961,1.27e5,1.77e5,3.32e5,3.06e5,inactive
CG6788 (GeneID 32773),DRSC20007,4.50e5,4.55e5,3.69e6,3.85e6,inactive
CG6788 (GeneID 32773),DRSC24906,6.47e5,6.72e5,7.09e5,7.99e5,inactive
PK2-R2 (GeneID 41638),DRSC16448,76123,1.24e5,1.42e6,2.16e6,inactive
PK2-R2 (GeneID 41638),DRSC25536,8.39e5,7.03e5,1.20e6,1.21e6,inactive
Cpr76Ba (GeneID 40120),DRSC11060,87790,49232,1.59e6,1.42e6,inactive
Cpr76Ba (GeneID 40120),DRSC27858,7.02e5,3.16e5,3.03e6,1.34e6,inactive
Zwilch (GeneID 59247),DRSC15376,2.15e5,2.64e5,1.76e6,2.15e6,inactive
jv (GeneID 318008),DRSC08831,1.12e5,96168,3.57e5,2.38e5,inactive
jv (GeneID 318008),DRSC25736,8.07e5,7.85e5,2.69e5,3.69e5,inactive
AMPdeam (GeneID 32352),DRSC19366,39200,46894,3.85e5,2.27e5,inactive
AMPdeam (GeneID 32352),DRSC19368,6.31e5,5.38e5,4.05e6,3.51e6,inactive
AMPdeam (GeneID 32352),DRSC19727,4.98e5,6.86e5,3.99e6,4.41e6,inactive
beat-VII (GeneID 43213),DRSC13780,1.64e5,2.21e5,5.86e5,4.30e5,inactive
beat-VII (GeneID 43213),DRSC14743,1.67e5,1.42e5,2.18e6,2.24e6,inactive
beat-VII (GeneID 43213),DRSC22825,5.65e5,9.93e5,9.55e5,1.59e6,inactive
CG13581 (GeneID 37911),DRSC04216,3.05e5,3.11e5,2.07e6,1.87e6,inactive
AttC (GeneID 36484),DRSC06886,1.47e5,1.75e5,9.59e5,1.07e6,inactive
AttC (GeneID 36484),DRSC26453,2.69e5,3.59e5,6.32e5,7.42e5,inactive
alpha-Est9 (GeneID 40897),DRSC12621,48401,92928,1.33e6,1.51e6,inactive
CG11300 (GeneID 37760),DRSC04104,98261,1.10e5,1.59e6,1.89e6,inactive
CG12480 (GeneID 32359),DRSC19460,4.58e5,4.37e5,2.35e6,2.86e6,inactive
CG12480 (GeneID 32359),DRSC27987,8.02e5,7.22e5,2.03e6,1.36e6,inactive
TBC1D16 (GeneID 34431),DRSC02841,1.63e5,1.65e5,1.25e6,1.13e6,inactive
CG32461 (GeneID 318042),DRSC11594,2.74e5,1.19e5,5.62e5,3.98e5,inactive
Yp3 (GeneID 32339),DRSC20302,2.71e5,3.77e5,2.06e6,2.56e6,inactive
Yp3 (GeneID 32339),DRSC25550,3.27e5,2.55e5,6.50e5,4.30e5,inactive
CG7872 (GeneID 32493),DRSC20062,52741,40383,4.11e5,5.24e5,inactive
CG17764 (GeneID 31440),DRSC23055,7.55e5,8.03e5,1.40e6,1.55e6,inactive

Targets listed so far whose gene name begins with K or k (3):
gene,DRSC id,"firefly reporter light, replicate 1","firefly reporter light, replicate 2","Renilla control light, replicate 1","Renilla control light, replicate 2",Outcome
kek1 (GeneID 34688),DRSC03551,1.98e5,3.23e5,1.32e6,1.61e6,inactive
kek1 (GeneID 34688),DRSC36699,,,,,inactive
kek1 (GeneID 34688),DRSC36700,,,,,inactive

Continued.
gene,DRSC id,"firefly reporter light, replicate 1","firefly reporter light, replicate 2","Renilla control light, replicate 1","Renilla control light, replicate 2",Outcome
CG13010 (GeneID 32643),DRSC19529,3.20e5,2.66e5,3.32e6,2.23e6,inactive
CG13010 (GeneID 32643),DRSC27744,2.08e5,2.10e5,5.72e5,9.03e5,inactive
CG13133 (GeneID 34342),DRSC02230,1.54e5,1.17e5,1.27e6,1.38e6,inactive
CG14569 (GeneID 40417),DRSC11730,3.06e5,2.21e5,3.15e6,2.66e6,inactive
CG18745 (GeneID 59141),DRSC15382,1.82e5,1.64e5,3.57e6,2.62e6,inactive
CG18745 (GeneID 59141),DRSC30088,8.44e5,7.35e5,9.23e5,9.80e5,inactive
CG12024 (GeneID 38243),DRSC08229,7.61e5,3.68e5,1.62e6,8.80e5,inactive
CG12024 (GeneID 38243),DRSC27391,2.66e5,2.52e5,5.86e5,7.59e5,inactive
CG12024 (GeneID 38243),DRSC38159,8.20e5,7.37e5,1.72e6,2.13e6,inactive
lky (GeneID 33006),DRSC20682,1.35e5,1.00e5,4.62e5,4.17e5,inactive
lky (GeneID 33006),DRSC27161,3.34e5,2.76e5,4.69e5,4.42e5,inactive
C3G (GeneID 31618),DRSC17929,3.84e5,3.68e5,3.96e6,3.03e6,inactive
C3G (GeneID 31618),DRSC23077,4.69e5,4.74e5,9.18e5,1.06e6,inactive
C3G (GeneID 31618),DRSC29081,5.31e5,6.85e5,1.43e6,1.13e6,inactive
Tengl4 (GeneID 41321),DRSC15620,1.37e5,2.10e5,2.72e6,3.30e6,inactive
CG14983 (GeneID 38466),DRSC08441,1.29e5,1.03e5,1.61e6,1.82e6,inactive
CG14983 (GeneID 38466),DRSC26428,2.35e5,2.63e5,5.88e5,6.46e5,inactive
CG13728 (GeneID 39937),DRSC10056,2.14e5,1.63e5,1.81e6,1.96e6,inactive
h-cup (GeneID 41879),DRSC15973,84504,32510,6.11e5,3.51e5,inactive
h-cup (GeneID 41879),DRSC24713,7.14e5,6.81e5,7.37e5,9.23e5,inactive
